In the supplement of paper PMC12578635:
This is one part of the list. No stated cut-off is given here; in the data, active = 150% or more and inactive = the rest. Repeats are few or missing, and single values can be far off.

The compounds below were run on Staphylococcus aureus JE2-lux inside RAW 264.7 macrophages (assay: intracellular bacterial bioluminescence relative to DMSO vehicle; higher = higher intracellular bacterial metabolic activity). Conditions: 10 µM; treatment time 4 h; gentamicin 50 µg/ml.

Intracellular bacterial bioluminescence, inactive:
CCOc1ccc(-n2c(=O)[nH]c3c(C(N)=O)nc(-c4ccc(C)o4)nc32)cc1 108%
COc1ccc(OC)c2sc(NNC(=O)c3c(F)cccc3F)nc12 79.5%
COc1ccc(NC(=O)CC2NC(=O)NC2=O)cc1 (stereo not drawn) 91.1%
O=C(NC1CC(=O)N(c2ccc3c(c2)OCCO3)C1)N1CCN(c2ccccc2F)CC1 (stereo not drawn) 132%
CC(=O)Nc1nc(C(=O)Nc2ccc3nc(C)[nH]c3c2)cs1 101%
Fc1ccc2nc(Nc3nc(-c4cccs4)cs3)sc2c1 97.3%
Cc1sc2nc(C)n(C3CCN(C(=O)c4n[nH]c5c4CCC5)CC3)c(=O)c2c1C 96.1%
Cc1cccc(CSC2=NCCN2C(=O)c2cccs2)c1 50%
COc1ccc2oc(=O)c(/C(N)=N/NC(=O)c3ccncc3)cc2c1 96.3%
CCOc1ccc(NC(=O)c2nc3c(=O)n(Cc4ccccc4C)c4cc(C)ccc4n3n2)cc1 105%
COc1cc2nc(NC(=O)c3cc4cc([N+](=O)[O-])ccc4s3)sc2cc1OC 100%
O=c1nc(SCc2cccc3ccccc23)c2c(n1CCO)CCCC2 118%
COC(=O)c1ccc(NC(=O)CCN2C(=O)CSC2=O)cc1 78.3%
COc1ccc(CCNc2nccn(Cc3ccc(Cl)cc3)c2=O)cc1OC 6.08%
CC(C)C(C(=O)Nc1ccccc1)N1C(=O)c2ccccc2C1=O (stereo not drawn) 92.7%
Cc1ccc(C)c2[nH]c(=O)c(CCNC(=S)NCCn3ccc4ccccc43)cc12 82.4%
Cc1nc(Oc2cccc(Cl)c2)c2c3c(sc2n1)CCCC3 82.8%
Cc1nn2c(C)c(C(=O)Nc3ccc(C(C)C)cc3)cnc2c1-c1ccccc1 106%
N#CC1=C(S)N(c2ccccc2)C(c2ccc(-c3ccccc3[N+](=O)[O-])o2)NC1=O (stereo not drawn) 94%
CCc1c(C)nc(N2CCN(c3cccc(OC)c3)CC2)[nH]c1=O 96.4%
O=C(CN(Cc1ccco1)C(=O)C(=O)Nc1ccc2c(c1)OCCO2)NC1CCCC1 88.6%
O=C(CCSc1ccc(F)cc1)Nc1nc2c(s1)CCC2 109%
CC(=O)C(C)n1c(CN2CCN(C(=O)c3ccco3)CC2)nc2c1c(=O)n(C)c(=O)n2C (stereo not drawn) 91.4%
Cc1nc(-c2ccccc2)c(CC(=O)NC(c2cccs2)C(C)C)s1 (stereo not drawn) 98.3%
Cc1ccccc1/N=c1\oc2ccc([N+](=O)[O-])cc2cc1C(N)=O 110%
CCN(C(=O)Cc1ccccc1OC)c1nc2c(s1)CCc1occc1-2 71.5%
CC1CC(C)CN(c2cc(C(=O)O)c3cc(NC(=O)C4CCC4)ccc3n2)C1 (stereo not drawn) 111%
Cc1ccc2c(c1)c1c(n2CC(O)CN2C(=O)CNC2=O)C(=O)CCC1 (stereo not drawn) 119%
Cc1cc(C)n(-c2cc(N3CCN(c4ccccc4)CC3)ncn2)n1 51.1%
COC(=O)c1ccc(NC(=O)CSc2nc3sc4c(c3c(=O)[nH]2)CCCC4)cc1 79.2%
O=C(Nc1sc2c(c1C(=O)NCCc1ccccc1)CCC2)c1cc(-c2cccs2)on1 98.1%
COC(=O)c1ccccc1NC(=O)CSc1nc2ccccc2s1 48.7%
Oc1c2c(nc3nc(Cc4ccc(Cl)cc4)nn13)CCCC2 72.5%
NC(=O)c1ccc(NC(=O)Cn2cc(S(=O)(=O)Cc3ccccc3)c3ccccc32)cc1 98.6%
O=S(=O)(Oc1ccc2oc3ccccc3c2c1)c1cccs1 26.3%
Cc1ccccc1/N=c1\scc(-c2cccs2)n1CCO 78.7%
COc1ccc(-c2nc3sc(CCNC(=O)C(=O)N4CCN(C(C)=O)CC4)c(C)n3n2)cc1 117%
CCOc1ccc(NN=C2C(C)=NN=C2C)c([N+](=O)[O-])c1 114%
Cc1cccc(-c2nc3scc(CCNC(=O)C(=O)Nc4cccc([N+](=O)[O-])c4)n3n2)c1 111%
CCC1CCCCN1C(=O)CCc1c(C)[nH]c2nc(NCc3ccc(Cl)cc3)nn2c1=O (stereo not drawn) 113%
Cc1ccc2c(c1)NC(=O)c1cc(NS(=O)(=O)c3ccc4c(c3)OCCO4)ccc1O2 114%
CCOC(=O)c1cnn(-c2ccc(C(=O)Nc3ccccc3OCC)cn2)c1N 123%
CCc1ccc2c(c1)c1nnc(SCc3nnc(-c4ccccc4)o3)nc1n2C 93.1%
O=c1oc2cc(OCC(O)Cn3ccnc3)ccc2c2c1CCC2 (stereo not drawn) 71.4%
Cc1ccccc1N(CC(=O)NCc1ccc(F)cc1)C(=O)c1ccc(N2CCCC2)nc1 65.3%
CC(C)Oc1ccc(C(=O)C2=C(O)C(=O)N(Cc3cccnc3)C2c2cccc(O)c2)cc1 (stereo not drawn) 102%
Cc1ccc(NC(=O)CC2Nc3ccc(C(F)(F)F)cc3NC2=O)c(C)c1 (stereo not drawn) 130%
Cc1nc2c(ccc3nc(Nc4nc5ccc(F)cc5s4)sc32)s1 94%
CCn1cc(C(=O)N2CCCC2c2nc(-c3ccncc3)n[nH]2)c(C)n1 (stereo not drawn) 127%
COc1ccc(-n2ccnc2SCC(=O)NCc2ccc3c(c2)OCO3)cc1 82.7%
COc1cc2nc(NCCCN3CCCC3=O)n3nc(-c4cccnc4)nc3c2cc1OC 77%
CC(C)n1c(SCC(=O)Nc2cccc(F)c2)nc2c(-c3ccccc3)cn(C)c2c1=O 57.8%
Cc1ccc(-c2cc(C(F)(F)F)n3nc(C(=O)NCc4ccco4)nc3n2)cc1 101%
CCOc1ccc(-c2ccc(OCCNC(=O)c3sc(-c4ccccc4)nc3C)nn2)cc1 93%
CCOC(=O)c1c(SCC(=O)c2ccc(Cl)cc2)nc(=O)[nH]c1C 79.5%
COc1ccccc1CNC(=O)c1sc2nc(-c3ccc(F)cc3)cn2c1C 98.2%
Cc1cc(C)cc(Oc2ncnc3oc(C)c(C)c23)c1 96.9%
COc1ccc(CN(Cc2cc3cc(C)ccc3nc2Cl)C(=O)Nc2ccccc2)cc1 114%

4 compounds already listed, sorted by length of the SMILES, rising.
Intracellular bacterial bioluminescence, inactive:
COC(=O)c1ccc(NC(=O)CCN2C(=O)CSC2=O)cc1 78.3%
Cc1nn2c(C)c(C(=O)Nc3ccc(C(C)C)cc3)cnc2c1-c1ccccc1 106%
CC1CC(C)CN(c2cc(C(=O)O)c3cc(NC(=O)C4CCC4)ccc3n2)C1 (stereo not drawn) 111%
Cc1sc2nc(C)n(C3CCN(C(=O)c4n[nH]c5c4CCC5)CC3)c(=O)c2c1C 96.1%
